Measured values reported in patent EP0210412B1, “Anchoring membrane ingredient conjugate, and its use” (HOECHST AKTIENGESELLSCHAFT, priority 1985, dated 1995).
Part of at least one peptide drawing is inferred or uncertain, most often the ends. Where a SMILES comes first, the peptide text is derived from it. Where no end group is shown, it is not given here. The star is where a group is joined. X1 = CCCCCCCCCCCCCCCC(=O)OCC(C*)OC(=O)CCCCCCCCCCCCCCC; Palmitoyl = CCCCCCCCCCCCCCCC(=O)*

Key:
Balb/c-Mäuse = assay: in vivo immunisation of mice, specific antibody titre by ELISA; details: single i.p. dose without further additives, ELISA after 2 weeks
Milzzellen aus Mäusen = assay: in vitro immunisation of mouse spleen cell cultures, specific antibodies in supernatant by ELISA; type: cell-based; details: microtitre plates, 2,5 x 10⁶ Zellen/ml, substance 5 x 10⁻⁷ mmolar, 37 °C, 5 % CO₂, 5 days (Fig. 11)

Compound	Titer an spezifischen Antikörpern gegen das Tetradekapeptid (Balb/c-Mäuse)	Antikörperkonzentration (Milzzellen aus Mäusen)
CCCCCCCCCCCCCCCC(=O)N[C@@H](CSCC(COC(=O)CCCCCCCCCCCCCCC)OC(=O)CCCCCCCCCCCCCCC)C(=O)N[C@@H](CO)C(=O)N[C@@H](CC(N)=O)C(=O)N[C@@H](CC(C)C)C(=O)N[C@@H](CC(C)C)C(=O)N[C@@H](CCC(=O)O)C(=O)NCC(=O)N[C@@H](CCC(=O)O)C(=O)N1CCC[C@H]1C(=O)N[C@@H](CCCNC(=N)N)C(=O)N[C@@H](CCC(=O)O)C(=O)N[C@@H](Cc1ccccc1)C(=O)N[C@H](C(=O)N[C@@H](CCC(=O)O)C(=O)N[C@@H](CC(N)=O)C(=O)N[C@@H](CO)C(=O)O)C(C)C (stereo partly drawn) [Pam₃Cys-Ser-(EGF-R 515-529), Pam-Cys(CH₂-CH(0Pam)CH₂(0Pam))Ser-Asn-Leu--Leu-Glu-Gly-Glu-Pro-Arg-Glu-Phe-Val-Glu-AsnSer-OH x CF₃COOH] (Palmitoyl-C(X1)SNLLEGEPREFVENS-OH)	hohe Titer	drastische Anstieg der Antikörperkonzentration
NLLEGEPREFVENS [Tetradekapeptid, reference compound]	keine Antikörpertiter	
